Data published in PMC8213057, “Targeting ALK2: An Open Science Approach to Developing Therapeutics for the Treatment of Diffuse Intrinsic Pontine Glioma” (Journal of Medicinal Chemistry, 2020).

How the values were obtained:
[1] = biological target: CDK1/cyclin B (Homo sapiens, UniProt P06493); conditions: 1 μM; Run 1, Run 2
[2] = biological target: MARK3 (Homo sapiens, UniProt P27448); assay: biochemical; conditions: read-out: % enzyme activity, 1 μM; Run 1, Run 2
[3] = biological target: MARK4 (Homo sapiens, UniProt Q96L34); conditions: 1 μM; Run 1, Run 2
[4] = biological target: PKCepsilon (Homo sapiens, UniProt Q02156); conditions: 1 μM; Run 1, Run 2
[5] = biological target: STK32C/YANK3 (Homo sapiens, UniProt Q86UX6); conditions: 1 μM; Run 1, Run 2
[6] = biological target: CDK9/cyclin T1 (Homo sapiens, UniProt P50750); conditions: 1 μM; Run 1, Run 2
[7] = biological target: MRCKb/CDC42BPB (Homo sapiens, UniProt Q9Y5S2); conditions: 1 μM; Run 1, Run 2
[8] = biological target: FLT4/VEGFR3 (Homo sapiens, UniProt P35916); conditions: 1 μM; Run 1, Run 2
[9] = biological target: T1, LCK (Homo sapiens, UniProt P06239); conditions: 1 μM; Run 1, Run 2
[10] = biological target: TLK1 (Homo sapiens, UniProt Q9UKI8); conditions: 1 μM; Run 1, Run 2
[11] = biological target: ZIPK/DAPK3 (Homo sapiens, UniProt O43293); assay: biochemical; conditions: read-out: % enzyme activity, 1 μM; Run 1, Run 2
[12] = biological target: TAK1 (Homo sapiens, UniProt O43318); conditions: 1 μM; Run 1, Run 2
[13] = biological target: NEK7 (Homo sapiens, UniProt Q8TDX7); conditions: 1 μM; Run 1, Run 2
[14] = biological target: CDK8/cyclin C (Homo sapiens, UniProt P49336); assay: biochemical; conditions: read-out: % enzyme activity, 1 μM; Run 1, Run 2
[15] = biological target: RSK1 (Homo sapiens, UniProt Q15418); assay: biochemical; conditions: read-out: % enzyme activity, 1 μM; Run 1, Run 2
[16] = biological target: STK22D/TSSK1 (Homo sapiens, UniProt Q9BXA7); assay: biochemical; conditions: read-out: % enzyme activity, 1 μM; Run 1, Run 2
[17] = biological target: MEKK2 (Homo sapiens, UniProt Q9Y2U5); assay: biochemical; conditions: read-out: % enzyme activity, 1 μM; Run 1, Run 2
[18] = biological target: LYN B (Homo sapiens, UniProt P07948); conditions: 1 μM; Run 1, Run 2
[19] = biological target: ASK1/MAP3K5 (Homo sapiens, UniProt Q99683); conditions: 1 μM; Run 1, Run 2
[20] = biological target: MEKK6 (Homo sapiens, UniProt O95382); conditions: 1 μM; Run 1, Run 2
[21] = biological target: PKG1b (Homo sapiens, UniProt Q13976); conditions: 1 μM; Run 1, Run 2
[22] = biological target: EPHA7 (Homo sapiens, UniProt Q15375); conditions: 1 μM; Run 1, Run 2
[23] = biological target: ULK2 (Homo sapiens, UniProt Q8IYT8); assay: biochemical; conditions: read-out: % enzyme activity, 1 μM; Run 1, Run 2
[24] = biological target: FGR (Homo sapiens, UniProt P09769); assay: biochemical; conditions: read-out: % enzyme activity, 1 μM; Run 1, Run 2
[25] = biological target: TTBK1 (Homo sapiens, UniProt Q5TCY1); conditions: 1 μM; Run 1, Run 2
[26] = biological target: WNK1 (Homo sapiens, UniProt Q9H4A3); conditions: 1 μM; Run 1, Run 2
[27] = biological target: P38a/MAPK14 (Homo sapiens, UniProt Q16539); assay: biochemical; conditions: read-out: % enzyme activity, 1 μM; Run 1, Run 2
[28] = biological target: GRK5 (Homo sapiens, UniProt P34947); assay: biochemical; conditions: read-out: % enzyme activity, 1 μM; Run 1, Run 2
[29] = biological target: CHK1 (Homo sapiens, UniProt O14757); conditions: 1 μM; Run 1, Run 2
[30] = biological target: T1, LCK; assay: biochemical; conditions: read-out: % enzyme activity, 1 μM; Run 1, Run 2
[31] = biological target: Haspin (Homo sapiens, UniProt Q8TF76); conditions: 1 μM; Run 1, Run 2
[32] = biological target: CDK4/cyclin D1 (Homo sapiens, UniProt P11802); conditions: 1 μM; Run 1, Run 2
[33] = biological target: TTBK2 (Homo sapiens, UniProt Q6IQ55); assay: biochemical; conditions: read-out: % enzyme activity, 1 μM; Run 1, Run 2
[34] = biological target: MLK2/MAP3K10 (Homo sapiens, UniProt Q02779); conditions: 1 μM; Run 1, Run 2
[35] = biological target: CLK4 (Homo sapiens, UniProt Q9HAZ1); assay: biochemical; conditions: read-out: % enzyme activity, 1 μM; Run 1, Run 2
[36] = biological target: CDK3/cyclin E2 (Homo sapiens, UniProt Q00526); conditions: 1 μM; Run 1, Run 2
[37] = biological target: HIPK3 (Homo sapiens, UniProt Q9H422); assay: biochemical; conditions: read-out: % enzyme activity, 1 μM; Run 1, Run 2
[38] = biological target: SNARK/NUAK2 (Homo sapiens, UniProt Q9H093); assay: biochemical; conditions: read-out: % enzyme activity, 1 μM; Run 1, Run 2
[39] = biological target: FGFR3 (Homo sapiens, UniProt P22607); conditions: 1 μM; Run 1, Run 2
[40] = biological target: NEK11 (Homo sapiens, UniProt Q8NG66); conditions: 1 μM; Run 1, Run 2
[41] = biological target: ERK2/MAPK1 (Homo sapiens, UniProt P28482); conditions: 1 μM; Run 1, Run 2
[42] = biological target: PAK2 (Homo sapiens, UniProt Q13177); assay: biochemical; conditions: read-out: % enzyme activity, 1 μM; Run 1, Run 2
[43] = biological target: PKA (Homo sapiens, UniProt P17612); conditions: 1 μM; Run 1, Run 2

SMILES: COc1cc(-c2cncc(-c3ccc(N4CCN(C(C)C)CC4)cc3)c2C)cc(F)c1C(N)=O [Compound 26b, 2-Fluoro-4-(5-(4-(4-isopropylpiperazin-1-yl)phenyl)-4-methylpyridin-3-yl)-6-methoxybenzamide]
- % enzyme activity [1]: 89.90%
- remaining activity at 1 µM [2]: 93%
- % enzyme activity [3]: 83.34%
- % enzyme activity [4]: 97.53%
- % enzyme activity [5]: 90.70%
- % enzyme activity [6]: 92.35%
- % enzyme activity [7]: 95.88%
- % enzyme activity [8]: 96.06%
- % enzyme activity [9]: 96.67%
- % enzyme activity [10]: 109.03%
- remaining activity at 1 µM [11]: 108%
- % enzyme activity [12]: 97.41%
- % enzyme activity [13]: 93.87%
- remaining activity at 1 µM [14]: 90.1%
- remaining activity at 1 µM [15]: 97%
- remaining activity at 1 µM [16]: 101%
- remaining activity at 1 µM [17]: 81.1%
- % enzyme activity [18]: 91.23%
- % enzyme activity [19]: 99.17%
- % enzyme activity [20]: 89.86%
- % enzyme activity [21]: 98.95%
- % enzyme activity [22]: 102.43%
- remaining activity at 1 µM [23]: 81.1%
- remaining activity at 1 µM [24]: 93.4%
- % enzyme activity [25]: 93.79%
- % enzyme activity [26]: 100.13%
- remaining activity at 1 µM [27]: 99.8%
- remaining activity at 1 µM [28]: 99.9%
- % enzyme activity [29]: 105.34%
- remaining activity at 1 µM [30]: 97%
- % enzyme activity [31]: 83.53%
- % enzyme activity [32]: 99.89%
- remaining activity at 1 µM [33]: 98%
- % enzyme activity [34]: 106.44%
- remaining activity at 1 µM [35]: 94.9%
- % enzyme activity [36]: 84.43%
- remaining activity at 1 µM [37]: 87.9%
- remaining activity at 1 µM [38]: 92.7%
- % enzyme activity [39]: 104.10%
- % enzyme activity [40]: 89.23%
- % enzyme activity [41]: 88.25%
- remaining activity at 1 µM [42]: 107%
- % enzyme activity [43]: 97.30%
